According to patent US6472200B1, “Device and method for performing a biological modification of a fluid” (Yissum Research Development Company of the Hebrew …, priority 1998, dated 2002):
Counter-ions that a name gives are not always drawn. Like-named read-outs stand apart in the source and are kept apart here.

System: P450

SMILES: CCN(CC)CC(=O)Nc1c(C)cccc1C [LIGNOCAINE-HCl, lignocaine-HCl]
- LIGNOCAINE-HCl in culture medium (0 hours, 80 μg/ml added at the beginning, 4 liver MCs per ml): 62.2 µg/mL
- LIGNOCAINE-HCl in culture medium (7.1 hours): 33.9 µg/mL
- LIGNOCAINE-HCl in culture medium (24.1 hours): 23.7 µg/mL
- LIGNOCAINE-HCl in culture medium (30.1 hours): 20.9 µg/mL
- Concentration of lignocaine in culture medium (course) (liver MCs ex vivo): declined for 30 hours
